Test results from patent US9547017B2, “Genetically encoded fluorescent sensors for detecting intracellular signalling through diacylglycerol pathways” (MONTANA MOLECULAR LLC, priority 2012, dated 2017).
Some of these results come from one statement about several compounds together.

Test system: DAG and Ca2+
Assay: Dual sensor system: DAG sensor-2A-R-GECO1, stimulation of the M1 receptor
Format: cell-based
Settings: green channel, sensor paired with R-GECO1, stimulation of the M1 receptor

Row | Substance | time DAG levels remain high [s]
1 | Downward DAG: DAG sensor: cpEGFP at K152 of PKC delta truncated at L122; fluorescence decreases upon binding to DAG | 200 to 300
2 | Upward DAG: DAG sensor: cpEGFP at N158 of PKC delta truncated at L122; fluorescence increases upon binding to DAG | 200 to 300
